In patent publication US20240010590A1 (priority 2020, published 2024):
Some entries share one result that the patent states for a list of compounds.

What was measured:
BVDV [1] = assay: Single-detergent treatment of buffer containing HSA, BVDV inactivation; type: cell-based, bovine viral diarrhea virus; details: single detergent 0.03%±0.01%, 14°C±1°C
BVDV [2] = assay: Single-detergent treatment of IVIG-containing liquid, BVDV inactivation; type: cell-based, bovine viral diarrhea virus; details: single detergent 0.03%±0.01%, 17°C±1°C

| Substance | virus reduction factor (RF) (BVDV [1]; within 5 minutes) | virus reduction factor (RF) (BVDV [1]; within 29 minutes) | virus reduction factor (RF) (BVDV [2]; within 10 minutes) | virus reduction factor (RF) (BVDV [2]; within 30 minutes) |
| --- | --- | --- | --- | --- |
| 4-tert-octylbenzyl alcohol polyethoxylate | over 3 | over 4 | over 3 | over 4 |
| 4-tert-octylcyclohexyl alcohol polyethoxylate [Triton X-100 reduced] | over 3 | over 4 | over 3 | over 4 |
